Among all 400,000 compounds or so, about 13,000 (3.2%) were called active. The shares of active, inactive and inconclusive entries below differ from those in the screen. Calls follow the shape of the dose curve; as a rule, active = well fitted cell-killing curve with a large enough effect; inconclusive = small, poorly fitted or top-dose-only effect, or effect the other way; inactive = flat fitted curve, though single readings scatter. Potencies beside an inconclusive call are fits to weak or partial responses and may not hold up.
assay: qHTS assay for MDR1-selective chemotherapeutics: Primary screen using the drug-selected MDR subline cells KB-V1; details: KB-V1 MDR cells viability, CellTiter-Glo, 72 h; activity change, negative = cytotoxicity: at 46.1 µM (top of the series); also: nearly all actives have a fitted effect of over 60% in size
How it was run: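 In this primary screen, KB-V1 cells overexpressing P-gp are incubated with library compounds (lowest to highest concentration) for 72 h at 37 degrees C before a luminescent ATP viability read.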
% is scaled to controls: 0 for no effect and ±100 for the full control effect; potency is read from the fitted curve at half-maximal effect.

| SMILES | activity change, negative = cytotoxicity | Potency |
| --- | --- | --- |
| Cc1ccccc1CN1CCCC(C(=O)N2CCCCC2)C1 (centres undefined) | inactive: -8.65% | – |
| Cc1ccc(NS(=O)(=O)c2cccc(C(=O)N3CCN(c4ncccn4)CC3)c2)cc1 | – | active: 8.2 µM |
| O=S(=O)(NCCc1nnc2ccc(SCc3cccc(Cl)c3)nn12)c1ccccc1 | inactive: 1.16% | – |
| COc1ccc(OC)c(N2C(=O)C(Cl)=C(N3CCCCC3)C2=O)c1 | – | inconclusive: 17.8 µM [rising, partial curve, poor fit] |
| COc1ccc2nc(SCC(=O)N(C)C3CCCCC3)c(C#N)cc2c1 | – | active: 14.6 µM |
| COc1ccc(C(=O)NCc2nnc(SCC(=O)Nc3nc4ccc(C)cc4s3)o2)cc1OC | – | inconclusive: 23.1 µM [rising, partial curve, poor fit] |
| FC(F)(F)c1nnc(Nc2ccc(Cl)cc2)s1 | – | inconclusive: 32.6 µM [cytotoxic, single point] |
| Cc1ccc2c(CNCCc3ccco3)c(C(=O)O)n(Cc3ccc(F)cc3)c2c1 | – | inconclusive: 0.0259 µM [rising, full curve, poor fit] |
| Cn1c(=O)[nH]c(=O)c2c1nc(Br)n2Cc1ccc(Cl)cc1 | – | inconclusive: 25.9 µM [cytotoxic, single point] |
| O=C1NC(Cc2ccc(O)cc2)c2nc3ccc(F)cc3c(=O)n2-c2cc(Cl)ccc21 (centres undefined) | inactive: 0.561% | – |
| Cc1nn(Cc2ccccc2Cl)c(C)c1C(=O)NCCN1C(=O)S/C(=C\c2ccccc2)C1=O | – | inconclusive: 18.4 µM [cytotoxic, partial curve] |
| Fc1cccc(F)c1/C=N/NC(=S)Nc1cccnc1 | inactive: 16.8% | – |
| Cc1ccc(S(=O)(=O)N(C)C)cc1NC(=O)/C=C/c1cccs1 | – | active: 14.6 µM |
| Cn1c(N)c(C(=O)COC(=O)C2(c3ccc(Cl)cc3)CCCC2)c(=O)n(C)c1=O | – | inconclusive: 29.1 µM [cytotoxic, single point] |
| O=C(O)/C=C/C(=O)NNC(=O)c1ccccc1Br | inactive: 25.3% | – |
| CC1C(=O)N(Cc2cn(CCC3OCCO3)nn2)CCS(=O)(=O)N1Cc1ccc(-c2cccc(N(C)C)c2)cc1 (centres undefined) | inactive: -3.82% | – |
| NS(=O)(=O)c1ccc(CCNC(=O)CSCC(=O)Nc2ccc(Cl)cc2)cc1 | inconclusive: -6.04% | – |
| Cn1c(CNC(=O)c2ccc(Cl)cc2)nnc1SCC(=O)Nc1sc2c(c1C#N)CCCC2 | – | inconclusive: 5.8 µM [cytotoxic, full curve] |
| COc1ccccc1CCNC(=O)c1csc2c1CCCC2 | – | inconclusive: 16.4 µM [cytotoxic, single point] |
| CC(C)CN(C(=O)CSc1nnnn1C)C1CCS(=O)(=O)C1 (centres undefined) | – | inconclusive: 29.1 µM [rising, single point] |
| N#C/C(=C(/O)c1ccc(F)cc1)c1nc2ccccc2s1 | – | inconclusive: 6.51 µM [cytotoxic, partial curve] |
| CC(=O)N(C(C)=O)c1cccc2c(N(C(C)=O)C(C)=O)cccc12 | inactive: 11.5% | – |
| CCN(CC(=O)Nc1ccccc1OC)C(=O)c1ccccc1Sc1ccccc1C#N | – | inconclusive: 0.461 µM [cytotoxic, full curve, poor fit] |

Full records from above:
COc1ccccc1CCNC(=O)c1csc2c1CCCC2 is entered as Potency: inconclusive: 16.4 µM [cytotoxic, single point]
CC1C(=O)N(Cc2cn(CCC3OCCO3)nn2)CCS(=O)(=O)N1Cc1ccc(-c2cccc(N(C)C)c2)cc1 (centres undefined) is entered as activity change, negative = cytotoxicity: inactive: -3.82%

Continuation:

| SMILES | activity change, negative = cytotoxicity | Potency |
| --- | --- | --- |
| Cn1nnc2c[n+](CC(=O)c3ccc(Cl)cc3)cc(Br)c21 | inactive: 7.46% | – |
| CCN(CC)S(=O)(=O)c1cc(NC(=O)CNc2cccc(S(=O)(=O)N3CCCC3)c2)ccc1C | – | active: 20.6 µM |
| CN(C)[C@H]1N(C(=O)c2ccc(Br)cc2)N=C2c3ccccc3S(=O)(=O)N21 | – | active: 8.2 µM |
| Cc1nn(-c2ccccc2)c(-n2cccc2)c1C(=O)NCCCN1CCN(c2ccccc2F)CC1 | inactive: 12.3% | – |
| CCSc1nc(-c2ccc(OC)cc2)cc(-c2ccc(OC)cc2)c1C#N | – | inconclusive: 11.6 µM [cytotoxic, partial curve] |
| Cc1ccc(OCC(=O)OCc2cc(=O)n3ccsc3n2)cc1C | inactive: 24.9% | – |
| Clc1cccc(NCc2nnc(SCc3ccccc3Cl)o2)c1 | – | inconclusive: 18.4 µM [cytotoxic, single point] |
| COc1ccc(-c2nn(-c3ccccc3)cc2C(=O)Nc2nccs2)cc1 | – | inconclusive: 23.1 µM [cytotoxic, single point] |
| Cc1cc([N+](=O)[O-])nn1CC(=O)NCc1ccccc1 | inactive: 3.2% | – |
| CC1(C)CC2CC(C)(CN2S(=O)(=O)c2ccc(C(=O)Nc3ccc(Cl)c(S(=O)(=O)N4CCOCC4)c3)cc2)C1 (centres undefined) | – | active: 2.91 µM |
| CCCCn1c(SCC(=O)N2CCCCC2C)nc2cc(S(N)(=O)=O)ccc21 (centres undefined) | – | inconclusive: 29.1 µM [rising, single point] |
| COc1ccc(C(C(=O)NCC2CCCO2)N(C(=O)CNC(=O)c2cccs2)c2ccccc2)cc1OC (centres undefined) | – | inconclusive: 29.1 µM [rising, single point] |
| COc1ccc(C)cc1NC(=S)NC(C)c1ccc(OC)c(OC)c1 (centres undefined) | inactive: -15.6% | – |
| CCOC(=O)c1nnn(-c2nonc2N)c1-c1ccc(OCC)cc1 | – | inconclusive: 16.4 µM [cytotoxic, single point] |
| Cn1c(SCc2nc3ccccc3s2)nnc1-c1cccs1 | – | inconclusive: 20.6 µM [cytotoxic, single point] |
| Cc1ccc(-n2c([C@@H]3C[C@H]3c3ccccc3)n[nH]c2=S)cc1 | – | inconclusive: 29.1 µM [cytotoxic, single point] |
| O=C(Cc1cccs1)N(Cc1cccs1)C1(C(=O)NC2CCCCC2)CCCCC1 | – | inconclusive: 6.51 µM [cytotoxic, partial curve, poor fit] |
| COc1cc(C(=O)Nc2ccc(-c3nc4cc(C)c(C)cc4o3)cc2)cc(OC)c1OC | inactive: 3.39% | – |
| Cc1ccc(SCCNC(=O)CN(c2cccc(C)c2C)S(C)(=O)=O)cc1 | inactive: -25.2% | – |
| COC(=O)[C@@]1(Cc2ccc(F)cc2)[C@H]2c3cc(C(=O)N4CCCC4)n(CCc4c[nH]c5ccccc45)c3C[C@H]2CN1C(=O)c1ccccc1 | – | inconclusive: 29.1 µM [cytotoxic, single point] |
| CCOC(=O)c1c(C)[nH]c(C(=O)COC(=O)CNC(=O)c2ccc(Br)cc2)c1C | – | inconclusive: 2.31 µM [cytotoxic, full curve] |
| CCOC(=O)C1CCN(S(=O)(=O)c2ccc3c(c2)N(C(C)=O)CC(C)S3)CC1 (centres undefined) | – | inconclusive: 23.1 µM [cytotoxic, single point] |
| CCOC(=O)c1c(C)oc2nc(C)nc(NCCc3ccc(OCC)cc3)c12 | – | inconclusive: 3.26 µM [cytotoxic, single point] |

Entries listed so far containing a furan ring, fused or not, in the order listed:

| SMILES | activity change, negative = cytotoxicity | Potency |
| --- | --- | --- |
| Cc1ccc2c(CNCCc3ccco3)c(C(=O)O)n(Cc3ccc(F)cc3)c2c1 | – | inconclusive: 0.0259 µM [rising, full curve, poor fit] |
| CCOC(=O)c1c(C)oc2nc(C)nc(NCCc3ccc(OCC)cc3)c12 | – | inconclusive: 3.26 µM [cytotoxic, single point] |

(list continues)

| SMILES | activity change, negative = cytotoxicity | Potency |
| --- | --- | --- |
| O=C(c1ccccc1)c1ccc(OCC(O)CN2CCN(Cc3ccccc3)CC2)cc1 (centres undefined) | – | inconclusive: 0.731 µM [cytotoxic, partial curve] |
| COc1ccc(/C=C/C(=O)NC(=S)Nc2ccccc2C(=O)NC2CCCCC2)cc1 | – | inconclusive: 5.17 µM [cytotoxic, full curve] |
| O=c1c2ccccc2sn1-c1ccc(S(=O)(=O)N2CCCC2)cc1 | – | inconclusive: 18.4 µM [cytotoxic, partial curve, poor fit] |
| CN(C)S(=O)(=O)c1ccc(Cl)c(-c2nnc3n2CCCCC3)c1 | inactive: 15.7% | – |
| Nc1cc2c(cc1Cl)N(Cc1ccccc1)C(=O)CO2 | inactive: -12.6% | – |
| O=C(CN1CCC(C(=O)c2ccc(F)cc2)CC1)NCc1ccccc1F | – | active: 9.2 µM |
| CC1(C)CC(=O)C2=C(C1)c1c(ccc3ccccc13)NC2c1ccc(C(=O)O)cc1 (centres undefined) | inactive: 21.2% | – |
| CCC(C)NC(=O)Cn1c(=O)n(-c2cc(OC)cc(OC)c2)c(=O)c2ccccc21 (centres undefined) | – | inconclusive: 29.1 µM [rising, single point] |
| CCCC1=NN(C(=O)Cc2ccc([N+](=O)[O-])cc2)C(O)(C(F)(F)F)C1 (centres undefined) | – | inconclusive: 25.9 µM [cytotoxic, partial curve, poor fit] |
| Cc1cccc(N2CCN(C3C(=O)Nc4ccccc4-n4nnnc43)CC2)c1C (centres undefined) | – | inconclusive: 20.6 µM [cytotoxic, single point] |
| CCOC(=O)Cc1csc(NC(=O)c2cc(-c3ccncc3)nc3ccccc23)n1 | – | inconclusive: 32.6 µM [cytotoxic, partial curve, poor fit] |
| O=C(N=c1nc2ccccn2s1)c1ccccc1 | – | inconclusive: 23.1 µM [cytotoxic, partial curve, poor fit] |
| COc1ccc(C2CC(c3cccs3)=NN2C(=O)CCCC(=O)O)cc1OC (centres undefined) | – | inconclusive: 10.3 µM [cytotoxic, partial curve] |
| O=S(=O)(c1ccccc1)N1CCN(c2cc(-c3ccccc3)nc3ncnn23)CC1 | – | inconclusive: 29.1 µM [cytotoxic, single point] |
| CCOC(=O)C1=C(C)Nc2nc3ccccc3n2C1c1cccs1 (centres undefined) | – | active: 3.26 µM |
| CC(=O)Nc1ccc(NC(=O)CSc2nc3c([nH]c4ccccc43)c(=O)n2-c2ccccc2F)cc1 | inactive: -0.0747% | – |
| O=C(Nc1ccc(-n2nncc2-c2ccco2)cc1)c1ccc(F)cc1 | – | active: 16.4 µM |
| CCCOc1ccc(-c2c(C(=O)N/N=C/c3cccnc3)nnn2-c2nonc2N)cc1 | – | inconclusive: 18.4 µM [rising, single point] |
| CCc1cc(CC)c(/C=N/NC(N)=O)c(CC)c1 | inactive: -6.8% | – |
| COc1ccc(CCN2C(=O)c3ccccc3NC2c2cc(Cl)c(O)c(OC)c2)cc1 (centres undefined) | – | inconclusive: 3.66 µM [cytotoxic, partial curve, poor fit] |
| Cc1ccc2cc(C(=O)O)c(C)nc2c1 | – | inconclusive: 16.4 µM [rising, single point] |
| C[C@H](NC(=O)c1nc[nH]c1C(=O)NCCCCCNC(=O)OC(C)(C)C)c1ccccc1 | – | inconclusive: 32.6 µM [cytotoxic, single point] |
| COc1ccc(N2C(=O)CS/C2=C\[N+](=O)[O-])cc1 | inactive: -7.03% | – |

From PubChem BioAssay AID1347076 (National Center for Advancing Translational Sciences (NCATS), 2019)
